Data as given in PubChem BioAssay AID1259308 (NCATS, 2017)
Aim: 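Candidate targets for better recombinant protein yield in mammalian cells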 (primary screen). System: human HEK293 embryonic kidney cells stably expressing firefly luciferase (HEK-CMV-Luc2-Hygro). Knock-down reagent: single siRNA against human genes, 0.8 pmol siRNA per well. Timing: 72 h. Read-out: 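Luciferase light (ONE-Glo) measured on one replicate plate set and viability (CellTiter-Glo) on the other, scaled to a negative control siRNA, with robust z-scores and luciferase per cell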. Scale: total luciferase, z-score and total luciferase, % of control: higher = more reporter protein produced. Rule for the call: 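An siRNA counts as active if its total luciferase robust z-score exceeds 3; genes with two or more such siRNAs out of three were retested with fresh siRNAs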. Meaning of the calls: active = raised luciferase; inactive = no rise.
In all, the deposit lists about 59,000 reagents; this is a part drawn at random. About 1,510 of all reagents (2.6%) were called active. 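Calls use total luciferase alone and ignore viability, so some active siRNAs may act by altering cell number.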 The numbers tell different reagents against one gene apart. Not all columns of the deposit are shown.

| Target gene | reagent no. | total luciferase, z-score | total luciferase, % of control | Call |
| --- | --- | --- | --- | --- |
| OR4K15 (olfactory receptor family 4 subfamily K member 15) | 1 | -1.14 | 59.3 | inactive |
| OR4K15 (olfactory receptor family 4 subfamily K member 15) | 2 | -0.232 | 77.3 | inactive |
| OR4K15 (olfactory receptor family 4 subfamily K member 15) | 3 | 1.75 | 117 | inactive |
| ECHS1 (enoyl-CoA hydratase, short chain 1) | 1 | 0.765 | 97.1 | inactive |
| ECHS1 (enoyl-CoA hydratase, short chain 1) | 2 | 0.0249 | 82.4 | inactive |
| ECHS1 (enoyl-CoA hydratase, short chain 1) | 3 | -0.203 | 77.9 | inactive |
| PANK3 (pantothenate kinase 3) | 1 | -0.508 | 71.8 | inactive |
| PANK3 (pantothenate kinase 3) | 2 | 1.28 | 107 | inactive |
| PANK3 (pantothenate kinase 3) | 3 | -0.57 | 70.5 | inactive |
| TYSND1 (trypsin like peroxisomal matrix peptidase 1) | 1 | 0.17 | 85.3 | inactive |
| TYSND1 (trypsin like peroxisomal matrix peptidase 1) | 2 | -0.825 | 65.5 | inactive |
| TYSND1 (trypsin like peroxisomal matrix peptidase 1) | 3 | 0.318 | 88.2 | inactive |
| TNFRSF21 (TNF receptor superfamily member 21) | 1 | -0.21 | 77.7 | inactive |
| TNFRSF21 (TNF receptor superfamily member 21) | 2 | -1.35 | 55 | inactive |
| TNFRSF21 (TNF receptor superfamily member 21) | 3 | 1.18 | 105 | inactive |
| PDZRN4 (PDZ domain containing ring finger 4) | 1 | -0.246 | 77 | inactive |
| PDZRN4 (PDZ domain containing ring finger 4) | 2 | -3.04 | 21.4 | inactive |
| PDZRN4 (PDZ domain containing ring finger 4) | 3 | 0.451 | 90.9 | inactive |
| ATP6V0D2 (ATPase H+ transporting V0 subunit d2) | 1 | 1.42 | 110 | inactive |
| ATP6V0D2 (ATPase H+ transporting V0 subunit d2) | 2 | 0.0869 | 83.6 | inactive |
| ATP6V0D2 (ATPase H+ transporting V0 subunit d2) | 3 | 0.676 | 95.3 | inactive |
| SLC5A12 | 1 | 1.23 | 106 | inactive |
| SLC5A12 | 2 | -1.3 | 56.1 | inactive |
| SLC5A12 | 3 | -1.32 | 55.7 | inactive |

4 entries already listed, ordered by “total luciferase, % of control”, high to low:
| Target gene | reagent no. | total luciferase, z-score | total luciferase, % of control | Call |
| --- | --- | --- | --- | --- |
| OR4K15 (olfactory receptor family 4 subfamily K member 15) | 3 | 1.75 | 117 | inactive |
| ECHS1 (enoyl-CoA hydratase, short chain 1) | 1 | 0.765 | 97.1 | inactive |
| ECHS1 (enoyl-CoA hydratase, short chain 1) | 2 | 0.0249 | 82.4 | inactive |
| OR4K15 (olfactory receptor family 4 subfamily K member 15) | 2 | -0.232 | 77.3 | inactive |
